Experimental data taken from PubChem BioAssay AID493014 (National Center for Advancing Translational Sciences (NCATS), 2011).
Some of the results follow. These are further read-outs of the screen, such as a control signal, another cell line or another target. No call is given for them. Compounds called inactive in the main read-out are mostly missing here. The note in brackets gives the kind of curve behind each potency; many fits are weak.

Experiment: qHTS Assay to Find Inhibitors of Chronic Active B-Cell Receptor Signaling
Conditions: ABC-DLBCL IkBa-CBG/CBR reporter, luminescence ratio (green luciferase fused to IkBa over red control in TMD8 lymphoma cells), 4 h
Summary of the method: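 TMD8 ABC-DLBCL cells carrying doxycycline-inducible green luciferase fused to IkappaBalpha plus unfused red luciferase were exposed to compounds (up to 46 uM) for 4 hrs at 37C. Activity came from the overlap-corrected green/red luminescence ratio.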

[1] = measured here: CBR red luminescence, cell number
[2] = measured here: IkBa-CBG green luminescence

Compound | AC50 [1] | AC50 [2]
O=C(Nc1ccccc1N1CCOCC1)c1cc2c(s1)CCCCC2 | 25.1 µM [rising, single point] | –
C(=C\n1nnc2ccccc21)/c1ccccn1 | 14.6 µM [falling, partial curve, poor fit] | –
CC(=O)c1cc2c(cc1N/C(=N/S(=O)(=O)c1ccc(C)cc1)c1ccc(Cl)cc1)OCO2 | 0.112 µM [falling, full curve, poor fit] | –
O=C(NNC(=S)NC(=O)c1ccco1)c1ccc(NC(=O)c2ccccc2)cc1 | 35.5 µM [falling, single point] | –
NNC(=O)c1ccc(Cn2cc(Br)cn2)o1 | 20 µM [falling, single point] | –
O=C(CSC(=S)N1CCOCC1)Nc1nc(=O)c2ccccc2s1 | 2.59 µM [falling, full curve] | –
NC(=O)c1nn(-c2cccc(Cl)c2)c(=O)cc1O | 25.1 µM [falling, single point] | –
N#Cc1cc(Cl)c(NCC2CCCO2)cc1C#N (configuration not stated) | 3.98 µM [rising, single point] | –
Cc1ccc(OC(=O)c2ccc(C)c(C)c2)cn1 | 17.8 µM [rising, single point] | –
CSc1nc(N)nc(SCC(=O)c2ccccc2)c1C#N | 14.1 µM [falling, single point] | –
Cc1c(C(=O)NC2CCCCC2C)oc2ccccc12 (configuration not stated) | 35.5 µM [falling, single point] | 11.2 µM [rising, partial curve, poor fit]
CN(C)S(=O)(=O)c1ccc(-c2csc(N/N=C/c3ccc(O)cc3)n2)cc1 | 25.1 µM [falling, single point] | –
CCN1CCN(c2cc(C)c3cc(NC(=O)c4cc(OC)cc(OC)c4)ccc3n2)CC1 | 22.4 µM [falling, single point] | –
CCOc1cccc(C(=O)NC(=S)Nc2cccc(NC(=O)c3ccccc3Cl)c2)c1 | 4.61 µM [falling, full curve] | –
c1ccc(Cn2nnnc2C(c2cccs2)N2CCc3ccccc3C2)cc1 (configuration not stated) | 29.1 µM [rising, single point] | –
NC(=O)NC(=O)COC(=O)CNS(=O)(=O)c1ccc(F)c(F)c1F | 0.562 µM [rising, full curve, poor fit] | –
COc1ccc(Br)cc1CNC(=O)CCSCc1ccc(Cl)cc1 | 10 µM [falling, partial curve] | –
COC(=O)c1cnn(-c2nc3c(C)cccc3s2)c1C | 0.517 µM [rising, partial curve, poor fit] | –
O=S(Cc1cc(Sc2ccccc2)nc(-c2ccccc2)n1)c1ccccc1 (configuration not stated) | 0.164 µM [rising, partial curve, poor fit] | –
Cc1ccccc1OCC(=O)OCC(=O)c1ccc[nH]1 | 0.206 µM [rising, full curve, poor fit] | –
COc1ccc(N2CCN(C(CNC(=O)c3ccco3)c3ccco3)CC2)cc1 (configuration not stated) | 29.1 µM [rising, single point] | –

Compound | AC50 [1] | AC50 [2]
Cc1ccc(C(=O)Nc2cccc(C(F)(F)F)c2)cc1Nc1ccccn1 | 0.891 µM [falling, full curve, poor fit] | –
C=CCC1(O)CC(c2ccco2)NC(c2ccco2)C1CCC (configuration not stated) | 32.6 µM [falling, partial curve, poor fit] | –
CCOC(=O)Cc1csc(N/N=C/c2ccc(Cl)cc2)n1 | 11.2 µM [falling, single point] | –
COc1cc(/C=N/NC(=O)c2ccc(N3CCCC3=O)cc2)ccc1O | 0.501 µM [rising, full curve, poor fit] | –
COc1ccc(CC2(CO)CCN(Cc3ccc(NC(C)=O)cc3)CC2)cc1 | 6.31 µM [rising, single point] | –
CCN1CCN(CC(=O)c2c[nH]c3ccc(C)cc23)CC1 | 29.1 µM [rising, single point] | –
O=C(NC(=S)Nc1ccc(Cl)cc1)c1ccccc1 | 17.8 µM [falling, single point] | 35.5 µM [falling, single point]
COc1ccc(-c2nc3ccc(C(=O)NCc4ccc(C)cc4)cc3nc2-c2ccc(OC)cc2)cc1 | 0.1 µM [rising, full curve, poor fit] | –
CC1(C(=O)NC(=S)N(Cc2ccccc2)c2ccccn2)CC1(Cl)Cl (configuration not stated) | 2.91 µM [rising, full curve, poor fit] | –
O=C(Nc1ccc(Cl)cc1C(=O)N1CCOCC1)c1cccc([N+](=O)[O-])c1 | 1.16 µM [rising, partial curve, poor fit] | –
CC(C)NC(=O)c1ccc2c(c1)nnn2C | 4.61 µM [falling, single point] | –
Cc1cccc(NC(=O)CSc2nc(C)nc3c2c(=O)n(C)c(=O)n3C)c1 | 0.00731 µM [rising, full curve, poor fit] | –
CCn1c(SCC(=O)Nc2cc(C)ccc2C)nnc1-c1cnccn1 | 35.5 µM [falling, single point] | –
CCc1ccc(CN(C)Cc2nc(Cc3ccccc3)no2)nc1 | 12.6 µM [rising, single point] | –
Cc1cc(NC(=S)NC(=O)CC(C)C)ccc1Br | 12.6 µM [rising, partial curve] | –
O=C(NNC(=O)C12CC3CC(CC(C3)C1)C2)c1cccc(O)c1 | 2.24 µM [falling, full curve] | –
CCOC(=O)N1CCN(C(=O)c2ccccc2NC(=O)c2ccc(Br)cc2)CC1 | 23.1 µM [falling, partial curve] | –
CC1=C(C(N)=O)C(c2ccccc2)n2nc(-c3cccc(C)c3)nc2N1 (configuration not stated) | 14.6 µM [falling, partial curve, poor fit] | –
COCCCNC(=S)Nc1cc2oc3ccccc3c2cc1OC | 3.98 µM [rising, single point] | –
Cc1ccc(CSc2nnc3c(n2)OC2(Nc4ccccc4-3)C(=O)Nc3ccc(F)cc32)cc1 (configuration not stated) | 15.8 µM [falling, partial curve] | –
COc1ccc(CC(CC(=O)O)C(=O)Nc2ccccc2)cc1 (configuration not stated) | 0.00517 µM [falling, full curve, poor fit] | –

By substructure: the entries above containing a thiophene ring, fused or not
Compound | AC50 [1] | AC50 [2]
O=C(Nc1ccccc1N1CCOCC1)c1cc2c(s1)CCCCC2 | 25.1 µM [rising, single point] | –
c1ccc(Cn2nnnc2C(c2cccs2)N2CCc3ccccc3C2)cc1 (configuration not stated) | 29.1 µM [rising, single point] | –

Remaining list, next part

Compound | AC50 [1] | AC50 [2]
CCCN=C1N(CC)C[C@@H]2[C@@H]3C(=O)N(Cc4ccccc4)C(=O)[C@@H]3[C@](C)(C(=O)OC)N12 | 29.1 µM [rising, single point] | –
Cc1cccc(N2CCN(S(=O)(=O)c3c(C)nc4scc(C)n4c3=O)CC2C)c1 (configuration not stated) | 35.5 µM [rising, single point] | –
CSc1ccc(/C=C/C(=O)OCC(=O)N2CCN(S(=O)(=O)c3ccc(C)cc3C)CC2)cc1 | 2.06 µM [rising, single point] | –
CC(=O)c1c(C)[nH]c(C(=O)OCc2ccc(F)cc2Cl)c1C | 5.62 µM [rising, full curve, poor fit] | –
COc1ccc(Cl)cc1NC(=O)C[n+]1cccc(C)c1 | 0.794 µM [falling, full curve, poor fit] | –
COc1ccc(COC(=O)c2cc([N+](=O)[O-])ccc2N2CCOCC2)cc1F | 0.366 µM [rising, full curve, poor fit] | 0.206 µM [falling, full curve]
Nc1nnn(CC(=O)N/N=C/c2cccc(Cl)c2)n1 | 22.4 µM [rising, single point] | –
CNC(=O)c1cc(C(=O)c2ccc(Cl)cc2)c[nH]1 | 0.631 µM [rising, full curve, poor fit] | –
CCn1c(SCC(=O)NC2CCCC2)nnc1C(C)NC(=O)c1ccccc1Br (configuration not stated) | 1.26 µM [rising, full curve, poor fit] | –
COc1ccc2nc(N=Nc3ccc(N(C)C)cc3)sc2c1 | 3.98 µM [falling, full curve, poor fit] | –
O=C(N/N=C/c1ccccc1OC(=O)c1ccc2c(c1)OCO2)c1ccccc1 | 11.6 µM [falling, partial curve] | –
Cc1cc(C(=O)Nc2ccc(OCc3ccccc3)cc2)c(C)o1 | 12.6 µM [falling, single point] | –
COc1ccc(S(=O)(=O)Nc2ccc3c(c2)C(=O)N([C@H](C)CO)C[C@H](C)[C@@H](CN(C)S(=O)(=O)c2cccs2)O3)cc1 | 1.3 µM [rising, partial curve, poor fit] | –
O=C(C1=C(O)C(=O)N(CC2CCCO2)C1c1ccccc1Cl)c1ccco1 (configuration not stated) | 6.31 µM [rising, single point] | –
CCOC(=O)C1CN(S(=O)(=O)c2ccc(C)cc2)CCN1S(=O)(=O)c1ccc(C)cc1 (configuration not stated) | 29.1 µM [rising, single point] | –
CC(CCc1ccccc1)NC(=O)CN1CCN(c2ccc(O)cc2)CC1 (configuration not stated) | 14.1 µM [rising, single point] | –
CCOC(=O)c1cccc(NC(=O)c2cc3ccccc3o2)c1 | 11.2 µM [falling, partial curve, poor fit] | –
O=C(O)CCN1C(=O)/C(=C\c2cccc(OCc3ccccc3)c2)SC1=S | 0.501 µM [falling, full curve, poor fit] | –
COc1ccc(C2NCCc3c2[nH]c2ccccc32)cc1COc1ccc(F)cc1 (configuration not stated) | 29.1 µM [falling, single point] | –
N#C/C(=N\Nc1ccc(Cl)cc1)C(N)=S | 15.8 µM [falling, partial curve] | 12.6 µM [rising, partial curve, poor fit]
O=C(O)CCCc1ccc2c(c1)CCc1ccccc1-2 | – | 0.00461 µM [rising, full curve, poor fit]
